Results are given in words; binding and its absence hold for the method and conditions named. Some binding calls cover weakened binding; strength is not graded here.

The chains behind the UniProt entries cited, without tags or fusion partners. Where a name states a change or a piece, a line headed by the entry shows the natural chain unless it says otherwise.
UniProt Q15154: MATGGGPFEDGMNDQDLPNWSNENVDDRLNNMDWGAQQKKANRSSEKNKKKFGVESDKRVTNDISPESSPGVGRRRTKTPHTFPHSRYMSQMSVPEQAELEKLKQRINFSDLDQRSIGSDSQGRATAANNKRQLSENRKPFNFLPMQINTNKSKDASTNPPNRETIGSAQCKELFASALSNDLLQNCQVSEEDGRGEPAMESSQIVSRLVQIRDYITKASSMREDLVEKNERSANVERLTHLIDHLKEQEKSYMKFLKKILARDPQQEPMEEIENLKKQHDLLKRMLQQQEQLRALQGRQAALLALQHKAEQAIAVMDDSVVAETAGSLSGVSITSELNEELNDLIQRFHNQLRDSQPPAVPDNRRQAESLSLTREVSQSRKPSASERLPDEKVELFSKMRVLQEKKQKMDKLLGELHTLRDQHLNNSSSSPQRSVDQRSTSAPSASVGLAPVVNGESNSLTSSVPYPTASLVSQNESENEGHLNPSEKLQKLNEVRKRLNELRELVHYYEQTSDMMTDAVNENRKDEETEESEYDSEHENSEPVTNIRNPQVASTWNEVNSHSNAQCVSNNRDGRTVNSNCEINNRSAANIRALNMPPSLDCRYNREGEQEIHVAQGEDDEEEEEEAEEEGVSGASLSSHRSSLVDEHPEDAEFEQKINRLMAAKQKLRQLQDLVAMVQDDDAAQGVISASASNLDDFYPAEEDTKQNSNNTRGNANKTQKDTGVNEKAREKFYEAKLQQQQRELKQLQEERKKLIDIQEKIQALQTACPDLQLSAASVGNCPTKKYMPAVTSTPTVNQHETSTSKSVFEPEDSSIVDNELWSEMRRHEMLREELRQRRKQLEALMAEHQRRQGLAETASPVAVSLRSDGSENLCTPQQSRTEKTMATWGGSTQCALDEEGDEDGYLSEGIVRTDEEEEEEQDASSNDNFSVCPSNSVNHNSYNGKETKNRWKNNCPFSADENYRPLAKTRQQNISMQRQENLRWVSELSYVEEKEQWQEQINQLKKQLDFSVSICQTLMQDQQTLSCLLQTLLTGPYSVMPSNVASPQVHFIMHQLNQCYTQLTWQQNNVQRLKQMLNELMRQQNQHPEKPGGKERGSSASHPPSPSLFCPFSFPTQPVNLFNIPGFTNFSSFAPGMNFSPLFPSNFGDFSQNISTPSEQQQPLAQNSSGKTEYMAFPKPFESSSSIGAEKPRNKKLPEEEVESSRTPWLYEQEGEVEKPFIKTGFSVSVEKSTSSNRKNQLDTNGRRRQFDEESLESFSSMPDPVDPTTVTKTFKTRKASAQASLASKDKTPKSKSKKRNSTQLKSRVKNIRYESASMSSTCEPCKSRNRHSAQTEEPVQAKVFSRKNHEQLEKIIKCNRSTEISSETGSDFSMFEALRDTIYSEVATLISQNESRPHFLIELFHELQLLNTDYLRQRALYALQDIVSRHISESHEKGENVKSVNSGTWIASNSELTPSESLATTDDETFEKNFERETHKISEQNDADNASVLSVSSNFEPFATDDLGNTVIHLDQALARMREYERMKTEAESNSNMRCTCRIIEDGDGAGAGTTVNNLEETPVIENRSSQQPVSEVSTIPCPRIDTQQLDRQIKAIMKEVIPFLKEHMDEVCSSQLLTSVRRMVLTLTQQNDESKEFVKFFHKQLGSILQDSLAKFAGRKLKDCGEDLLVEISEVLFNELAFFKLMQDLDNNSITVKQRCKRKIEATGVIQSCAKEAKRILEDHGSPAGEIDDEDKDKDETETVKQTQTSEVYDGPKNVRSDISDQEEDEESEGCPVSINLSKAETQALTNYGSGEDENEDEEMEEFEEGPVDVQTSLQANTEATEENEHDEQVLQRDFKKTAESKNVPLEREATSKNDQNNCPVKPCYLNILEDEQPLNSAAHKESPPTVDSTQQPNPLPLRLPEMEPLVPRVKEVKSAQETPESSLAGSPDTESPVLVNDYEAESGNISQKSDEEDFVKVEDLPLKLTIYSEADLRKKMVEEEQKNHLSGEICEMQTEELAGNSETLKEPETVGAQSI
UniProt P60520: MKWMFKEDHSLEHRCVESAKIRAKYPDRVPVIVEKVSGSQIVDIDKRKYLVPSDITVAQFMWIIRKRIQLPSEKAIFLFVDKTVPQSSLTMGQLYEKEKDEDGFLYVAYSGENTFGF

In this assay the target is PCM1 LIR peptide (pericentriolar material 1 protein residues 1954-1968), N-terminally biotinylated (UniProt Q15154). As to the kind of experiment: BLI. For orientation: BLI is a label-free optical method that tracks binding on a fibre tip over time.

As to GABARAPL2 (from UniProt P60520 1-117), the binding result is on record as “binds”.

Consider LC3A (from UniProt Q9H492 1-121), for which the binding result was “binds”.

The values above are taken from publication doi:10.1101/2024.07.10.602929.
